PMC10524267
Results are given in words; binding and its absence hold for the method and conditions named. Some entries that bind do so weakly or less than the wild type. Sequences can lack the tags named with a protein.

Molecular target: T1, mouse CX3CR1 on transfected Jurkat cells (mouse) (UniProt Q9Z0D9)
T1 sequence: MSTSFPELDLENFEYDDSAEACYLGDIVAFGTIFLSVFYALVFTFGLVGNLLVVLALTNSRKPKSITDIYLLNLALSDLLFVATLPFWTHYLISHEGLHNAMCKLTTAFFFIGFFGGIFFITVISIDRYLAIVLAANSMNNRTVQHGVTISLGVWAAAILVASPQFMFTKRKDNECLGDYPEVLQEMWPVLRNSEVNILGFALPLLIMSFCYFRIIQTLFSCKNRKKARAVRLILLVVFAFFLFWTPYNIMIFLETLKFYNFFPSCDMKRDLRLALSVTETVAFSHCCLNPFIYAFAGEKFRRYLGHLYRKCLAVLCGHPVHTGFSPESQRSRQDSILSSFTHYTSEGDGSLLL
Assay: flow cytometry on cells; Jurkat-mCX3CR1 cells incubated with anti-CX3CR1 mAb hybridoma supernatant or isotype control for 30 min, then CX3CL1-hFc at 2 µg/ml; bound CX3CL1-Fc detected with goat anti-human IgG-PE; only the binder purified

- binding: binds
B1: CX3CL1-human IgG1 Fc fusion protein (Fc fusion, UniProt O35188 25-336)
chain: QHLGMTKCEIMCDKMTSRIPVALLIRYQLNQESCGKRAIVLETTQHRRFCADPKEKWVQDAMKHLDHQAAALTKNGGKFEKRVDNVTPGITLATRGLSPSALTKPESATLEDLALELTTISQEARGTMGTSQEPPAAVTGSSLSTSEAQDAGLTAKPQSIGSFEAADISTTVWPSPAVYQSGSSSWAEEKATESPSTTAPSPQVSTTSPSTPEENVGSEGQPPWVQGQDLSPEKSLGSEEINPVHTDNFQERGPGNTVHPSVAPISSEETPSPELVASGSQAPKIEEPIHATADPQKLSVLITPVPDTQAAT
